Drug screen on melanoma cell lines: cell count

Data from the primary screen of doi:10.1371/journal.pone.0140310, rounded.

Every entry is a combination with docetaxel at 0.0005 µM: CC(=O)O[C@@]12CO[C@@H]1C[C@H](O)[C@@]1(C)C(=O)[C@H](O)C3=C(C)[C@@H](OC(=O)[C@H](O)[C@@H](NC(=O)OC(C)(C)C)c4ccccc4)C[C@@](O)([C@@H](OC(=O)c4ccccc4)[C@H]21)C3(C)C

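Human melanoma cells were exposed to a pair of drugs for 72 h in 1,536-well plates and read by automated microscopy after fixing and staining. Each value is the count of nuclei relative to DMSO-treated wells, in %, so that 100 equals the control. Concentrations were fixed for each drug; these are the higher of two levels. The file gives one value for each pair and line, without errors, so small differences may be noise.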 Only some of the drugs and lines screened are listed, without regard to their results.

* CO[C@@H]1[C@H](N(C)C(=O)c2ccccc2)C[C@H]2O[C@]1(C)n1c3ccccc3c3c4c(c5c6ccccc6n2c5c31)C(=O)NC4 at 0.4 µM : WM451Lu: 37.8; WM3619: 71.2; COLO 792: 16.8; C32: 76.4; COLO 829: 58.9; COLO 800: 39.1
* C[As](C)SC[C@H](NC(=O)CC[C@H](N)C(=O)O)C(=O)NCC(=O)O at 2 µM : WM451Lu: 35.4; WM3619: 38.9; COLO 792: 17.1; C32: 56.3; COLO 829: 41.5; COLO 800: 20.0
* COc1ccc(COc2ccc(Cc3cnc(N)nc3N)cc2OC)cc1 at 5 µM : WM451Lu: 33.6; WM3619: 33.8; COLO 792: 25.1; C32: 81.1; COLO 829: 47.7; COLO 800: 27.3
* C#Cc1cccc(Nc2ncnc3cc(OCCOC)c(OCCOC)cc23)c1 at 4 µM : WM451Lu: 24.3; WM3619: 53.0; COLO 792: 16.0; C32: 65.1; COLO 829: 39.3; COLO 800: 32.5
* CCCS(=O)(=O)Nc1ccc(F)c(C(=O)c2c[nH]c3ncc(Cl)cc23)c1F at 0.4 µM : WM451Lu: 27.0; WM3619: 38.8; COLO 792: 23.7; C32: 64.0; COLO 829: 56.2; COLO 800: 28.2
* CCCCCCCCCCCC1=C(O)C(=O)C=C(O)C1=O at 6 µM : WM451Lu: 26.6; WM3619: 67.0; COLO 792: 21.5; C32: 70.1; COLO 829: 44.1; COLO 800: 29.3
* CC(C)C[C@H](NC(=O)[C@H](Cc1ccccc1)NC(=O)c1cnccn1)B(O)O at 0.005 µM : WM451Lu: 25.2; WM3619: 0.9; COLO 792: 25.0; C32: 25.3; COLO 829: 17.3; COLO 800: 17.1
* O=C(Nc1ccccc1)c1cc([N+](=O)[O-])ccc1Cl at 10 µM : WM451Lu: 42.4; WM3619: 45.8; COLO 792: 26.6; C32: 69.8; COLO 829: 34.1; COLO 800: 16.5
* Cc1ccc(NC(=O)c2cccc(N(C)C)c2)cc1NC(=O)c1ccc(O)cc1 at 10 µM : WM451Lu: 31.2; WM3619: 72.3; COLO 792: 18.9; C32: 79.3; COLO 829: 40.9; COLO 800: 21.1
* Cn1nnc2c(C(N)=O)ncn2c1=O at 10 µM : WM451Lu: 32.3; WM3619: 54.5; COLO 792: 25.0; C32: 61.0; COLO 829: 47.0; COLO 800: 25.7
* C[C@@H]1CCN(C(=O)CC#N)C[C@@H]1N(C)c1ncnc2[nH]ccc12 at 5 µM : WM451Lu: 42.1; WM3619: 58.7; COLO 792: 31.0; C32: 84.0; COLO 829: 33.2; COLO 800: 8.8
* C=C(c1ccc(C(=O)O)cc1)c1cc2c(cc1C)C(C)(C)CCC2(C)C at 10 µM : WM451Lu: 30.6; WM3619: 54.0; COLO 792: 16.2; C32: 80.6; COLO 829: 32.6; COLO 800: 29.2
* COc1ccc2c(c1)CCC1C2CCC2(C)C(NCCCCCCN3C(=O)C=CC3=O)CCC12 (stereo unspecified) at 2 µM : WM451Lu: 38.3; WM3619: 45.5; COLO 792: 15.8; C32: 54.8; COLO 829: 37.9; COLO 800: 22.2
* Nc1ncn([C@H]2C[C@H](O)[C@@H](CO)O2)c(=O)n1 at 0.5 µM : WM451Lu: 41.1; WM3619: 30.8; COLO 792: 19.1; C32: 72.2; COLO 829: 37.0; COLO 800: 31.5
* CC1(C)CCC(c2ccc(Cl)cc2)=C(CN2CCN(c3ccc(C(=O)NS(=O)(=O)c4ccc(N[C@H](CCN5CCOCC5)CSc5ccccc5)c(S(=O)(=O)C(F)(F)F)c4)cc3)CC2)C1 at 2 µM : WM451Lu: 10.9; WM3619: 32.5; COLO 792: 3.2; C32: 31.4; COLO 829: 19.0; COLO 800: 101
* O=C(Nc1cccc(Cl)c1)Nc1ncc(CCNc2ncnc3ccsc23)s1 at 0.004 µM : WM451Lu: 32.4; WM3619: 68.5; COLO 792: 25.5; C32: 61.5; COLO 829: 40.2; COLO 800: 55.4
* Oc1nc(-c2ccc(C(F)(F)F)cc2)nc2c1CSCC2 at 10 µM : WM451Lu: 40.6; WM3619: 66.3; COLO 792: 16.0; C32: 69.1; COLO 829: 57.8; COLO 800: 23.4
* Nc1ccn([C@@H]2O[C@H](CO)[C@@H](O)C2(F)F)c(=O)n1 at 0.002 µM : WM451Lu: 39.3; WM3619: 30.1; COLO 792: 26.6; C32: 52.9; COLO 829: 29.6; COLO 800: 115
* C[C@]1(O)C[C@@H](c2nc(-c3ccc4ccc(-c5ccccc5)nc4c3)c3c(N)nccn32)C1 at 2 µM : WM451Lu: 33.2; WM3619: 63.3; COLO 792: 17.4; C32: 60.4; COLO 829: 37.3; COLO 800: 11.1
* O=C(/C=C/c1cccnc1)NCCCCC1CCN(C(=O)c2ccccc2)CC1 at 0.05 µM : WM451Lu: 28.2; WM3619: 38.7; COLO 792: 19.4; C32: 65.9; COLO 829: 37.8; COLO 800: 43.3
* CN(C)S(=O)(=O)c1ccc2c(c1)/C(=C/c1cc3c([nH]1)CCCC3)C(=O)N2 at 2 µM : WM451Lu: 28.7; WM3619: 69.3; COLO 792: 16.5; C32: 72.9; COLO 829: 49.3; COLO 800: 17.2
* O=S(=O)(c1ccccc1)N(CC(F)(F)F)c1ccc(C(O)(C(F)(F)F)C(F)(F)F)cc1 at 7 µM : WM451Lu: 35.6; WM3619: 60.9; COLO 792: 20.5; C32: 60.7; COLO 829: 37.1; COLO 800: 17.0
* O=C(Oc1ccc([N+](=O)[O-])cc1)N1CCC(C(O)(c2ccc3c(c2)OCO3)c2ccc3c(c2)OCO3)CC1 at 5 µM : WM451Lu: 39.1; WM3619: 55.8; COLO 792: 27.0; C32: 66.2; COLO 829: 47.0; COLO 800: 20.3
* Cc1ccc(Nc2nccc(N(C)c3ccc4c(C)n(C)nc4c3)n2)cc1S(N)(=O)=O at 2 µM : WM451Lu: 34.0; WM3619: 64.4; COLO 792: 16.2; C32: 82.1; COLO 829: 45.3; COLO 800: 17.0
* CCN(CC)CCCCNc1ncc2cc(-c3cc(OC)cc(OC)c3)c(NC(=O)NC(C)(C)C)nc2n1 at 0.5 µM : WM451Lu: 47.1; WM3619: 63.1; COLO 792: 22.6; C32: 80.4; COLO 829: 45.4; COLO 800: 38.8
* C=CCNC1=C2C[C@@H](C)C[C@H](OC)[C@H](O)[C@@H](C)/C=C(\C)[C@H](OC(N)=O)[C@@H](OC)/C=C\C=C(/C)C(=O)NC(=CC1=O)C2=O at 0.01 µM : WM451Lu: 25.1; WM3619: 46.4; COLO 792: 20.8; C32: 26.6; COLO 829: 47.6; COLO 800: 15.6
* C=CCn1c(=O)c2cnc(Nc3ccc(N4CCN(C)CC4)cc3)nc2n1-c1cccc(C(C)(C)O)n1 at 0.1 µM : WM451Lu: 34.4; WM3619: 39.0; COLO 792: 24.6; C32: 81.3; COLO 829: 49.5; COLO 800: 19.5
* COc1cc2c(Oc3ccc4[nH]c(C)cc4c3F)ncnc2cc1OCCCN1CCCC1 at 2 µM : WM451Lu: 34.9; WM3619: 48.1; COLO 792: 15.3; C32: 63.2; COLO 829: 46.7; COLO 800: 18.6
* Cn1c(=O)n(-c2ccc(C(C)(C)C#N)cc2)c2c3cc(-c4cnc5ccccc5c4)ccc3ncc21 at 0.02 µM : WM451Lu: 30.4; WM3619: 40.3; COLO 792: 31.4; C32: 56.5; COLO 829: 34.4; COLO 800: 35.2
* O=C(Nc1cc(C(F)(F)F)cc(C(F)(F)F)c1)c1cc(Cl)ccc1O at 0.08 µM : WM451Lu: 47.8; WM3619: 52.3; COLO 792: 20.3; C32: 74.5; COLO 829: 43.7; COLO 800: 30.5
* COCC[n+]1c2c(n(Cc3cnccn3)c1C)C(=O)c1ccccc1C2=O at 0.002 µM : WM451Lu: 21.4; WM3619: 40.8; COLO 792: 26.7; C32: 62.2; COLO 829: 36.0; COLO 800: 14.4

3 of the entries, repeated:

Partner,WM451Lu,WM3619,COLO 792,C32,COLO 829,COLO 800
O=C(Nc1cccc(Cl)c1)Nc1ncc(CCNc2ncnc3ccsc23)s1 at 0.004 µM,32.4,68.5,25.5,61.5,40.2,55.4
C=CCNC1=C2C[C@@H](C)C[C@H](OC)[C@H](O)[C@@H](C)/C=C(\C)[C@H](OC(N)=O)[C@@H](OC)/C=C\C=C(/C)C(=O)NC(=CC1=O)C2=O at 0.01 µM,25.1,46.4,20.8,26.6,47.6,15.6
Oc1nc(-c2ccc(C(F)(F)F)cc2)nc2c1CSCC2 at 10 µM,40.6,66.3,16.0,69.1,57.8,23.4